# Experimental data: paper doi:10.1101/2023.09.28.559965
# Sequences of proteins named here, by UniProt entry; tags and fusion partners are left off.
# UniProt P15924: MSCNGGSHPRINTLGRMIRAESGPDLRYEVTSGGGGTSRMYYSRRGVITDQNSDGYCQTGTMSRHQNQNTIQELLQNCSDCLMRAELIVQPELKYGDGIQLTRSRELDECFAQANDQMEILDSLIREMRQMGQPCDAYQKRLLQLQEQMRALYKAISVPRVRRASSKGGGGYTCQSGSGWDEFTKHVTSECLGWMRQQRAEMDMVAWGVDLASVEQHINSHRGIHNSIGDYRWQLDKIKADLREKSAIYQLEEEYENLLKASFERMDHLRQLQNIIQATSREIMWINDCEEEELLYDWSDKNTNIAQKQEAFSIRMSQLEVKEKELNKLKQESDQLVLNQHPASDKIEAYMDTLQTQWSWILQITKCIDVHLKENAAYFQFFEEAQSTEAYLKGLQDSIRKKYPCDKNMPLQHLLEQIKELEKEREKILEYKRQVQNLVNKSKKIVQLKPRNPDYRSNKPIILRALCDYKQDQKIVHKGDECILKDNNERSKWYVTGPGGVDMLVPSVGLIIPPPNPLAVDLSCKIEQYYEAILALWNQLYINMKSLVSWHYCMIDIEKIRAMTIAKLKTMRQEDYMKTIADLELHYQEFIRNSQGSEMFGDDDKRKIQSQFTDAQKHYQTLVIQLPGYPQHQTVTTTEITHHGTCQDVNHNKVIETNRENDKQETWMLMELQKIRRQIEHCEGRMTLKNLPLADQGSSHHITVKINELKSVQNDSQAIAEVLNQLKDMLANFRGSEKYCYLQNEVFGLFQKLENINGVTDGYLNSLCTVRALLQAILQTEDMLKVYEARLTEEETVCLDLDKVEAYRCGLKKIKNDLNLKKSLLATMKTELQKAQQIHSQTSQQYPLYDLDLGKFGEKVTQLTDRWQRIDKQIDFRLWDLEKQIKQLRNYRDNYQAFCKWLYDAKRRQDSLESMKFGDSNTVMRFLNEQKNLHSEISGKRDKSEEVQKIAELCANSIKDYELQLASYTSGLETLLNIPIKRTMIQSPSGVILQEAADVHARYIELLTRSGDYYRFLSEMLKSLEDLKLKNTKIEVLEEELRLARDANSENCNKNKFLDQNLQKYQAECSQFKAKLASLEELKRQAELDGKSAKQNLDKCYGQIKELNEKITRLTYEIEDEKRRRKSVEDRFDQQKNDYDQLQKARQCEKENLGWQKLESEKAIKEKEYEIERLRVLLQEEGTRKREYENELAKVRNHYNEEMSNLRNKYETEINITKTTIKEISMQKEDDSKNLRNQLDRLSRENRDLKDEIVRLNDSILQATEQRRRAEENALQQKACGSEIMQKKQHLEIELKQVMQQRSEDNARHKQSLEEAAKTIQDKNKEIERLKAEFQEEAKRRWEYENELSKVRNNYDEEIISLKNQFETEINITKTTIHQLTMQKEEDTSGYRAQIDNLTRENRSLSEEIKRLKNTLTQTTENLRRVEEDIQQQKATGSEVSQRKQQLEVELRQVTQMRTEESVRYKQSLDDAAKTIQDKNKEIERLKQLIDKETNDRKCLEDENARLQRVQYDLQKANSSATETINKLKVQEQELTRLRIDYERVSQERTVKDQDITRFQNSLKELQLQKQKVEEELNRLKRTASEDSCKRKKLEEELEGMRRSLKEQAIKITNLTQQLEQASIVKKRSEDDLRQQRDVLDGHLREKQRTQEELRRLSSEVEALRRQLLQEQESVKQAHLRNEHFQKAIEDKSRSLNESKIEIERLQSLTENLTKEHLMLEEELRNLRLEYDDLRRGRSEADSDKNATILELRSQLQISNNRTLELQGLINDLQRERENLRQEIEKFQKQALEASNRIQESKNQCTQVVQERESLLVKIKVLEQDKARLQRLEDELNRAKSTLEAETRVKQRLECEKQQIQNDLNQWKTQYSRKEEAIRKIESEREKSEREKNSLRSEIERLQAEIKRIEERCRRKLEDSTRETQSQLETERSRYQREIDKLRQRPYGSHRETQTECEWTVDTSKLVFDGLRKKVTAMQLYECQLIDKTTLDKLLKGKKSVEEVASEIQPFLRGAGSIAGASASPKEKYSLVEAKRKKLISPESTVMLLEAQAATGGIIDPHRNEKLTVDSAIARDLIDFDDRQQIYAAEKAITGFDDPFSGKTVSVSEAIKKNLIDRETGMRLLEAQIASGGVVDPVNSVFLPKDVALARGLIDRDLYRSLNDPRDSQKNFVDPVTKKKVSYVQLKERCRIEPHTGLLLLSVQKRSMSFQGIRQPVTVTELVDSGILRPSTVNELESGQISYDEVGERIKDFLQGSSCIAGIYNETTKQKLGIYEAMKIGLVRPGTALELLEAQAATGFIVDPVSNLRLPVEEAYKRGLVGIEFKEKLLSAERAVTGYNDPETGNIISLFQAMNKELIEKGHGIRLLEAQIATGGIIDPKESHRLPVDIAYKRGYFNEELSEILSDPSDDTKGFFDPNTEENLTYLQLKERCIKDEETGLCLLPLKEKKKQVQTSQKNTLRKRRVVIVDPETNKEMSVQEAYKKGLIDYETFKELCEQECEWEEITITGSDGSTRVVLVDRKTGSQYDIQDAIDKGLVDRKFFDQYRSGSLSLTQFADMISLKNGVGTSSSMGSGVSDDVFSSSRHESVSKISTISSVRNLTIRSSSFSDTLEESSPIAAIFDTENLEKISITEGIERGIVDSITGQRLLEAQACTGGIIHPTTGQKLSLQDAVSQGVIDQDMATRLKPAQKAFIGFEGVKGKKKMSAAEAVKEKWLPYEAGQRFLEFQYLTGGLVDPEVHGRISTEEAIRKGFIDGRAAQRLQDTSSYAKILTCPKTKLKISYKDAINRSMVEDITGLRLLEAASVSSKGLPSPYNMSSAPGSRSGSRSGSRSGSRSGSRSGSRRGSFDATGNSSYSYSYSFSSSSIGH
# UniProt P08670: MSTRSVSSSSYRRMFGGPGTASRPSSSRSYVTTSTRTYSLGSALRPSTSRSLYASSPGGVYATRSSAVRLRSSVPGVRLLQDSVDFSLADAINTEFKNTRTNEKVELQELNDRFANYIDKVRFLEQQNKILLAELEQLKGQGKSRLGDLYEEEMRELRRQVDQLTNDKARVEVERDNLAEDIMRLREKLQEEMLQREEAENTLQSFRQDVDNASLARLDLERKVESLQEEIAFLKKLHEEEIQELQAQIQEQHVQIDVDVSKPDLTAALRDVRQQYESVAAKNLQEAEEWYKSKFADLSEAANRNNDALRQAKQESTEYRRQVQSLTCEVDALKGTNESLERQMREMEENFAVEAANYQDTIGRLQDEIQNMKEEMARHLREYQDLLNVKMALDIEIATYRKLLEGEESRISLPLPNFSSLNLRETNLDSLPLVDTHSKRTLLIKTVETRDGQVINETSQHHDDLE
# Results are given in words; binding and its absence hold for the method and conditions named. Binding seen in cells or lysates may run through a third protein. Some entries that bind do so weakly or less than the wild type.
# Target: HER2 with eGFP tag, doxycycline-induced in MCF10A-Teti-HER2_GFP cells (UniProt P04626)
# Assay: co-IP
row,Substance,binding
1,Desmoplakin (from UniProt P15924 1-2871),binds
2,Vimentin (from UniProt P08670 1-466),binds
